In test [1] the target is KDM5B (mouse (endogenous in BMDMs and BMDCs)) (UniProt Q80Y84). Kind of test: co-IP; endogenous proteins; extracts of BMDMs and BMDCs treated with LPS for the indicated time points; immunoblot with the indicated antibodies. On the technique in general: Immunoblotting shows a protein as a band on a membrane.
For test [2] the target is unchanged. The experiment in a line: sequential ChIP (re-ChIP); fixed BMDMs after LPS stimulation for 2 h; first-round ChIP against USP38, KDM5B or IgG, eluted samples re-ChIPed with the second antibodies; PCR of the Il6 promoter.

By UniProt entry, the sequences of proteins in these tests, tags left out.
UniProt Q80Y84: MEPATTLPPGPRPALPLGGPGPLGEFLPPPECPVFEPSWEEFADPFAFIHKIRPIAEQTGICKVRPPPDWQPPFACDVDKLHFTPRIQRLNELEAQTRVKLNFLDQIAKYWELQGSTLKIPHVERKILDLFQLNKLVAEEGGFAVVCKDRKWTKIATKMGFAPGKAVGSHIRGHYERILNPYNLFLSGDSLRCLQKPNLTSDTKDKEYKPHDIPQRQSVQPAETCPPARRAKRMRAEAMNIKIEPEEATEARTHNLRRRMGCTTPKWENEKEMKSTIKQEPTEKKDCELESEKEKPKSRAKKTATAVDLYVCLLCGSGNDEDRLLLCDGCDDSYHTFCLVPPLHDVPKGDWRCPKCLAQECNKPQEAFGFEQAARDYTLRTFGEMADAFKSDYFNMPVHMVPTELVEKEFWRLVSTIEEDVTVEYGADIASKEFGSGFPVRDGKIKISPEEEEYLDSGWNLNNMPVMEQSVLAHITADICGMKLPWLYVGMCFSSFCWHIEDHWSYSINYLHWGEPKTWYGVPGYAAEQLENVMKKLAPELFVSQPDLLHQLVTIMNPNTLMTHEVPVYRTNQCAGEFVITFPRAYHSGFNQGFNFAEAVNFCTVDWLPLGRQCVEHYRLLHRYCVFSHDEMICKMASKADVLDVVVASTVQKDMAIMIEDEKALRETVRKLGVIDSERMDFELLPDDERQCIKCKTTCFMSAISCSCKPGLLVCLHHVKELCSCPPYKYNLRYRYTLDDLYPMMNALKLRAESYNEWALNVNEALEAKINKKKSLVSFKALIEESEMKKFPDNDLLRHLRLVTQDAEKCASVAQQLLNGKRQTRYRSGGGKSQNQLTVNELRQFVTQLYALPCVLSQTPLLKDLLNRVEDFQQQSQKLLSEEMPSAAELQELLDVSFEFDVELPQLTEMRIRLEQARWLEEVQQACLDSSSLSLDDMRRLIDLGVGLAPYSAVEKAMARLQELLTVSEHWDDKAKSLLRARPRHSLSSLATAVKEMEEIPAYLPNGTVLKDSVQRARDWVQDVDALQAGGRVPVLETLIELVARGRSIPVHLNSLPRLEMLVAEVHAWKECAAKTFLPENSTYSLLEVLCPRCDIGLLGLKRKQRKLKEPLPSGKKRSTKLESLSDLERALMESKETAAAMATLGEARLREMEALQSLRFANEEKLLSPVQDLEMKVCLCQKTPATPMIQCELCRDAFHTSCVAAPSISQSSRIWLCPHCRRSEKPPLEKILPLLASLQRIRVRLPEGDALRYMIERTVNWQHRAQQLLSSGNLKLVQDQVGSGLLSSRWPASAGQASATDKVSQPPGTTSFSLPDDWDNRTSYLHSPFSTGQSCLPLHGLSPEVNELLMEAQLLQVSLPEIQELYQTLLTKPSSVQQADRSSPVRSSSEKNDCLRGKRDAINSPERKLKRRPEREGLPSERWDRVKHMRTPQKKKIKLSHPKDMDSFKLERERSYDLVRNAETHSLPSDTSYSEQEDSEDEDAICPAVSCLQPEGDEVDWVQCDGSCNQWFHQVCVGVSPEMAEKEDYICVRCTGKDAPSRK

These are yes or no findings as the source states them, for the method shown. For some assays here: Binding seen in cells or lysates may run through a third protein. Some results given as binding are weak or reduced against the parent protein; the word gives no strength.

B1: USP38 (enzyme, UniProt Q8BW70 1-1042)
chain: MDKILEGLVSSSHPLPLKRMIVRKVVEFAEHWLDEAQCEAMFDLTTRLILEGQDPFQRQVGHQVLEAYARYHRPEFESFFNKTFVLGLLQQGYHSVDRKDVAILDYIHNGLKLIMSCPSVLDLFSLLQVEVLRMVCERPEPVLCARLSDLLTDFVQCVPKGKLSVTFCQQLVRTIGHFQCVSTQEKELREYVSQVTKVSTLLQNIWKAEPSTLLPSLQEVFASISSTDASFEPSVALASLVQHIPLQMITVLIRSLTTDPNVKDASMTQALCRMIDWLSWPLAQHVDTWVIALLKGLAAVQKFTILIDVTLLKIELVFNRLWFPLVRPGALAVLSHMLLSFQHSPEAFHVIVPHIVNLVHSFRSDGLPSSTAFLVQLTELVHCMMYHYSGFPDLYEPILEAVKDFPKPSEEKIKLILNQSAWTSQSNALASCLSRLSGKSETGKTGLINLGNTCYMNSVLQALFMATEFRRQVLSLNLNGCNSLMKKLQHLFAFLAHTQREAYAPRIFFEASRPPWFTPRSQQDCSEYLRFLLDRLHEEEKILRVQSSHKPSEGLDCAETCLQEVTSKVAVPTESPGTGDSEKTLIEKMFGGKLRTHICCLNCGSTSHKVEAFTDLSLAFCPSPSVEDLSFQDTASLPSAQDDGLMQTSVADPEEEPVVYNPATAAFVCDSVVNQRVLGSPPVEFHCAESSSVPEESAKILISKDVPQNPGGESTTSVTDLLNYFLAPEVLTGENQYYCESCASLQNAEKTMQITEEPEYLILTLLRFSYDQKYHVRRKILDNVSLPLVLELPVKRTASFSSLSQSWSVDVDFTDINENLPKKLKPSGTEEAFCPKLVPYLLSSVVVHSGVSSESGHYYSYARNITGTESSYQMCPQSESLALAPSQSCLLGVESPNTVIEQDLENKEMSQEWFLFNDSRVTFTSFQSVQKITSRFPKDTAYVLLYKKQSRANGIDSDNPASGVWANGDPPLQKELMDAITKDNKLYLQEQELNARARALQAASASCSFRPNGFDDNDPPGSCGPTGGGGGGGFNTVGRLVF
Turning to B1, the binding entry in test [1] and in test [2] was “binds” each time.

The values above are taken from article PMC7675183.
